Source: PubChem BioAssay AID2685 (National Center for Advancing Translational Sciences (NCATS), 2010)
The other results are listed elsewhere or left out. The main result of the screen is listed elsewhere. These columns were measured beside it and carry no call. Most of these compounds were active or inconclusive in the main read-out, so they are no random draw. Potencies come from curve fits of mixed quality, noted in brackets.

Test: qHTS Assay for Lipid Storage Modulators in Drosophila S3 Cells;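 on cell number change: cells counted by Cell Tracker Red CMTPX staining in the red channel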
Conditions: BODIPY lipid droplet fluorescence, 18-24 h; for cell number change: measured here: cell count max response, cells fed with added oleic acid
How it was run: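 Drosophila S3 cells got compounds at several concentrations plus oleic acid (400 uM solution). Laser-scanning cytometry with 488 nm excitation read lipid droplets at 500-530 nm and cells at 575-640 nm. Percent activity was relative to 20 uM Triacsin C.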

[1] = measured here: cell number channel AC50, cells fed with added oleic acid
[2] = measured here: lipid fluorescence (Fed channel) AC50, cells fed with added oleic acid

Compound	AC50 [1]	AC50 [2]	cell number change
CC1CCCCN1C(=O)CSc1nc2cc3c(cc2c(=O)n1Cc1ccc2c(c1)OCO2)OCO3 (stereo unspecified)	0.82 µM [rising, full curve]	0.92 µM [rising, full curve]	–
CCOC(=O)c1c(S(=O)(=O)NCCc2ccccc2)c(C)n(C)c1C	–	1.64 µM [falling, partial curve]	–
O=C(Oc1ccc2c(c1)OCO2)c1cc2c(s1)CCC2	–	11.6 µM [falling, partial curve, poor fit]	-10.1%
Cc1cc(C)nc(Nc2nc(=O)c3ccccc3s2)n1	10.3 µM [rising, single point]	–	35.2%
C=CCn1c(C)cc(C2=NNC(=Nc3ccc(C)cc3)SC2)c1C	–	0.259 µM [falling, full curve, poor fit]	29.6%
CCOC(=O)N1CCN(c2c(NCCCN(CC)CC)c(=O)c2=O)CC1	–	–	-29.8%
COc1ccc(/C=N/NC(=O)c2cc(-c3ccccc3)nc3ccccc23)c(OC)c1	–	6.51 µM [falling, single point]	5.19%
O=C(CSc1nc2ccc(NC(=O)c3ccccc3C(=O)O)cc2s1)Nc1c(Cl)cccc1Cl	0.116 µM [rising, full curve, poor fit]	–	-5.71%
Cn1c(NCCCO)nc2ccccc21	–	0.206 µM [falling, full curve, poor fit]	19.2%
Cc1cccc(N2CCN(C(=O)C3CC(=O)N(C4CCCC4)C3)CC2)c1C (stereo unspecified)	–	29.1 µM [falling, single point]	0.758%
N#CCCN(CCC#N)C(=O)c1ccc(Cl)cc1	29.1 µM [falling, single point]	0.184 µM [falling, full curve]	-34.9%
CCN(CC)S(=O)(=O)c1ccc(C(=O)Oc2ccc3c(c2)OCO3)cc1	7.31 µM [falling, partial curve]	29.1 µM [falling, single point]	-54.7%
Cc1cc(C)nc(Nc2n[nH]c(-c3ccc(C(C)(C)C)cc3)n2)n1	–	–	23.7%
N/C(=N\OC(=O)Cc1ccc(-c2ccccc2)cc1)c1cccnc1	0.291 µM [falling, partial curve, poor fit]	–	–
O=C(O)c1ccc(-c2nc(-c3cccc(C(F)(F)F)c3)cs2)cc1	6.51 µM [rising, single point]	–	-4.3%
CC(C)c1ccccc1NC(=O)COC(=O)c1c2c(nc3ccccc13)CCN(Cc1ccccc1)C2	–	29.1 µM [falling, partial curve, poor fit]	-11.8%
CC(C)NC(=O)C(=O)NCCN1CCN(S(=O)(=O)c2ccc(Cl)cc2)CC1	–	–	-25.5%
CC(=O)c1cccc(NS(=O)(=O)c2ccc(NC(=O)N3CCCCC3)cc2)c1	–	10 µM [falling, single point]	-19%
Cc1cc(C(=O)C[N+]2(C)CCOCC2)c(C)n1-c1ccc(Br)cc1	–	–	-21.9%
CCN(CC)S(=O)(=O)c1ccc2c(c1)c(=O)c(C(=O)NCc1ccco1)cn2C	2.31 µM [rising, single point]	–	15.6%
O=c1[nH]c2ccccc2nc1/C=C/c1ccc(O)cc1	20.6 µM [falling, single point]	16.4 µM [falling, partial curve]	-56%

Compound	AC50 [1]	AC50 [2]	cell number change
Cc1ccc(NC(CNS(=O)(=O)c2ccc(Cl)cc2)c2ccccc2)cc1 (stereo unspecified)	0.0517 µM [falling, full curve]	–	-35.2%
Cc1ccc(C)c(NC(=O)CN(C)C(=O)COc2cccc3c2OC(C)(C)C3)c1	–	29.1 µM [falling, single point]	-6.59%
COC(=O)c1ccc(OCC2NCCc3cc(OC)c(OC)cc32)cc1 (stereo unspecified)	4.61 µM [rising, single point]	–	-2.89%
CC1=C(C(=O)Nc2ccccc2F)C(c2ccsc2)C2=C(CC(C)(C)CC2=O)N1 (stereo unspecified)	–	–	2.38%
CCSc1nc2c(c(=O)n1Cc1ccccc1)SC(C)C2 (stereo unspecified)	5.17 µM [rising, partial curve]	5.17 µM [rising, full curve]	94.1%
Cc1ccc(-c2nnn(CC(=O)N(CC(=O)NC3CCCC3)c3ccc(F)c(Cl)c3)n2)o1	9.2 µM [falling, partial curve, poor fit]	18.4 µM [falling, partial curve]	-59.4%
Cc1cccc(N(C(=O)Cn2nnc3ccccc32)C(C(=O)NCc2ccco2)c2ccncc2)c1 (stereo unspecified)	–	0.411 µM [rising, partial curve, poor fit]	23.9%
CCC(=O)N1c2ccc(S(=O)(=O)N3CCN(c4ccccc4Cl)CC3)cc2CC1C (stereo unspecified)	–	29.1 µM [rising, single point]	1.33%
Cc1nn(-c2ccccc2)c2sc(C(=O)N3CCCCC3)cc12	–	–	-2.08%
COc1cc2oc3ccccc3c2cc1N(CC(=O)N(C)C)S(=O)(=O)c1ccc(C)cc1	–	29.1 µM [rising, single point]	10.2%
CCOC(=O)c1ccc(NC(=O)CC2C(=O)N(c3ccc(F)cc3)C(=O)N2CCCOC)cc1 (stereo unspecified)	–	–	-25.2%
COc1ccc(CN(CC2CCC(C(=O)O)CC2)C(=S)Nc2cccc(C)c2)cc1 (stereo unspecified)	–	0.103 µM [falling, full curve, poor fit]	-37.9%
CC(C)Cn1c(=O)c2sccc2n2c(CCCC(=O)N3CCC(N4CCCCC4)CC3)nnc12	–	18.4 µM [falling, single point]	-18.3%
COc1ccccc1COC(=O)Nc1c(C)nn(C)c1Cl	–	–	21.1%
S=C(NCC1CCCO1)Nc1ccc(Nc2ccccc2)cc1 (stereo unspecified)	–	8.2 µM [falling, partial curve, poor fit]	-7.39%
COC(=O)c1ccc(/C=N\NC(=O)c2c(C)nc3ccc(Cl)cn23)cc1	–	–	9.82%
Cc1ccc2[nH]c(=O)c(CN(Cc3cccnc3)C(=O)c3ccncc3)cc2c1	–	7.31 µM [rising, partial curve]	-17.7%
O=C(COn1nnc2ccc(C(F)(F)F)cc21)Nc1c(Cl)cccc1Cl	4.61 µM [rising, full curve, poor fit]	–	30.9%
O=C(Nc1ccccc1)Nc1nc(-c2ccc(F)c(F)c2)cs1	–	6.51 µM [falling, single point]	-1.38%
CCCOc1ccc(C(=O)OCC(=O)c2c(N)n(C)c(=O)n(C)c2=O)cc1OCC	2.91 µM [falling, full curve]	2.59 µM [falling, full curve]	-30.9%
O=C(N/C=N/O)C1=NOC(CNc2ncc(C(F)(F)F)cc2Cl)C1 (stereo unspecified)	–	0.411 µM [rising, full curve, poor fit]	-9.83%

Compound	AC50 [1]	AC50 [2]	cell number change
Cc1cc(-c2nc(C)c(-c3nnc(SCC(=O)Nc4cc(Cl)cc(Cl)c4)n3C)s2)no1	–	25.9 µM [falling, partial curve]	-20.3%
CC(=O)Nc1ccc(NC(=O)CN(C)S(=O)(=O)c2ccc3c(c2)CCC(=O)N3)cc1	–	–	10.6%
Cc1cc(C)cc(C(=O)Nn2cnnc2)c1	–	29.1 µM [rising, single point]	18.6%
CC1CCCC(C)N1C(=O)CSc1nnc(CSc2ncccn2)n1C (stereo unspecified)	–	20.6 µM [falling, single point]	-15.3%
Cc1ccc(-n2c(C)cc(C3N=C(N)Nc4nc5ccccc5n43)c2C)c(C)c1 (stereo unspecified)	29.1 µM [falling, single point]	18.4 µM [falling, single point]	-91.2%
COC(=O)c1c(-c2ccc(C(C)(C)C)cc2)csc1NC(=O)C1C2CCC(O2)C1C(=O)O (stereo unspecified)	–	29.1 µM [falling, single point]	-25.8%
COc1ccc(/C=N/Nc2nnc(C)n2N)cc1OC(C)=O	25.9 µM [falling, partial curve, poor fit]	8.2 µM [falling, partial curve]	-52.4%
c1cc2c(cc1-c1cnc3n1CCC3)OCCO2	–	–	-25.2%
CCCOc1ccc(/C=N/NC(=O)C2CC2)c(OCCC)c1	–	–	17.1%
CCOc1cc(/C=C2/COc3ccccc3C2=O)ccc1OCC(=O)N(C)C	–	–	8.77%
Nc1cc(N)c(OCC(F)(F)F)cc1OCC(F)(F)F	9.2 µM [rising, partial curve, poor fit]	4.11 µM [rising, single point]	39.2%
CCOC(=O)Cc1csc(NC(=O)c2ccc(Cl)s2)n1	–	–	-15.9%
O=C(Nc1ccccc1C(=O)N1CCCCC1)C1CCCCC1	–	0.58 µM [falling, full curve, poor fit]	0.708%
COc1cc(C(=O)Nc2nc3ccccc3s2)ccc1OCc1c(C)noc1C	13 µM [rising, partial curve]	14.6 µM [rising, partial curve]	87.1%
COc1cccc(C(=O)NC(=S)N2c3ccccc3CC2C)c1OC (stereo unspecified)	–	–	4.27%
N#C/C(=C\c1cccnc1)c1ccccc1[N+](=O)[O-]	–	0.58 µM [falling, single point]	-0.901%
O=C(NCc1ccccc1)c1ccc(Oc2ccc(C(=O)NCc3ccccc3)cc2)cc1	0.164 µM [rising, single point]	–	-17.8%
O=C(CCN1C(=O)c2ccccc2C1=O)N1CCC(c2ccccc2)C1 (stereo unspecified)	–	–	6.69%
CC(=O)c1c(C)[nH]c(C(=O)NNC(=O)COc2ccc(Cl)cc2C)c1C	0.461 µM [falling, single point]	–	–
COc1cccc2cccc(/C=N/n3cnnc3)c12	0.116 µM [rising, full curve, poor fit]	0.103 µM [rising, full curve, poor fit]	-5.25%

Another view of some results above:
Compound,AC50 [1],AC50 [2],cell number change
COC(=O)c1c(-c2ccc(C(C)(C)C)cc2)csc1NC(=O)C1C2CCC(O2)C1C(=O)O (stereo unspecified),–,"29.1 µM [falling, single point]",-25.8%
COc1ccc(/C=N/Nc2nnc(C)n2N)cc1OC(C)=O,"25.9 µM [falling, partial curve, poor fit]","8.2 µM [falling, partial curve]",-52.4%
c1cc2c(cc1-c1cnc3n1CCC3)OCCO2,–,–,-25.2%
CCCOc1ccc(/C=N/NC(=O)C2CC2)c(OCCC)c1,–,–,17.1%
CCOc1cc(/C=C2/COc3ccccc3C2=O)ccc1OCC(=O)N(C)C,–,–,8.77%
Nc1cc(N)c(OCC(F)(F)F)cc1OCC(F)(F)F,"9.2 µM [rising, partial curve, poor fit]","4.11 µM [rising, single point]",39.2%
CCOC(=O)Cc1csc(NC(=O)c2ccc(Cl)s2)n1,–,–,-15.9%
O=C(Nc1ccccc1C(=O)N1CCCCC1)C1CCCCC1,–,"0.58 µM [falling, full curve, poor fit]",0.708%
COc1cc(C(=O)Nc2nc3ccccc3s2)ccc1OCc1c(C)noc1C,"13 µM [rising, partial curve]","14.6 µM [rising, partial curve]",87.1%
COc1cccc(C(=O)NC(=S)N2c3ccccc3CC2C)c1OC (stereo unspecified),–,–,4.27%
N#C/C(=C\c1cccnc1)c1ccccc1[N+](=O)[O-],–,"0.58 µM [falling, single point]",-0.901%
O=C(NCc1ccccc1)c1ccc(Oc2ccc(C(=O)NCc3ccccc3)cc2)cc1,"0.164 µM [rising, single point]",–,-17.8%
